This is one part of the list.
Biological target: T1, OsSMF1 (Oryza sativa, UniProt Q6ZLB0 1-436)
T1 sequence: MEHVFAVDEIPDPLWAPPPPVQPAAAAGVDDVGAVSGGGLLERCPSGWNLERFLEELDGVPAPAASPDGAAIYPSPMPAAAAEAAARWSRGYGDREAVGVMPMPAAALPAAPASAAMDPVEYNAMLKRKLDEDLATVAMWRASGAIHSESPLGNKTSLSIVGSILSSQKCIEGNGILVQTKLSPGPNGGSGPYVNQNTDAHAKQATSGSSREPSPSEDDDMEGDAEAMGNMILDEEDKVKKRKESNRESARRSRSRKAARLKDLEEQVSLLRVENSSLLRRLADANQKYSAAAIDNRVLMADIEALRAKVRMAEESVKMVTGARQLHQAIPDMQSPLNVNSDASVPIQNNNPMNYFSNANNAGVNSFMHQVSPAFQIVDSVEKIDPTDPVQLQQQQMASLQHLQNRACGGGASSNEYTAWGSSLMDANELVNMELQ
Experiment: protein-binding microarray (RPBM); PBS, 2% BSA, 51.3 ng/ul salmon testes DNA, 50 uM zinc acetate, 200 nM TF, 25 C, 1 h; high values mean tight binding
Conditions: protein: recombinant; tags: N-terminal polyhistidine and DsRed monomer fusion (pET32a); chain copies: 2; label: CyDye5-dUTP incorporated in the synthesized complementary strand; 3' TTTTT single-stranded linker to array surface; dsDNA, one strand shown
In short: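 A custom Agilent array was converted to double-stranded form by primer extension with Cy5-dUTP and blocked with 2% BSA. Protein at 200 nM in PBS with 2% BSA, salmon testes DNA and 50 µM zinc acetate was applied for 1 h at 25 °C, followed by washing. The proteins were polyhistidine–DsRed N-terminal fusions of transcription factors, expressed in E. coli BL21-CodonPlus and Ni–NTA-purified. The binding signal is per-feature fluorescence intensity (arbitrary units) from an Axon 4000B scanner.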

| Sequence | binding signal |
| --- | --- |
| GCCAATCTCGACGTGCGCTACCGCTGCTGCACCTCCGTGCCGGAGTCACCTAGTGCAG | 3290 fluorescence intensity (a.u.) |
| TTTCACGAACTAAACATGCCTTATCAGAACCGAACAAACCCGGAGTCACCTAGTGCAG | 3330 fluorescence intensity (a.u.) |
| GCCTGTCGTAACCCCTTGCGTGGCGCCGGTCCTCTCCGCCCGGAGTCACCTAGTGCAG | 5300 fluorescence intensity (a.u.) |
| CTGCAGTTTGCCTTTAAGTCTCAGTAACTTGCTGAGTTGGCGGAGTCACCTAGTGCAG | 9010 fluorescence intensity (a.u.) |
| GTTCGCAACTCGCCGTCTCCAAAAGATAAAGGGAAAACGGCGGAGTCACCTAGTGCAG | 4000 fluorescence intensity (a.u.) |
| TCTTAACACTCCTTTGAAGAGATATGTACATCAAACATAACGGAGTCACCTAGTGCAG | 3190 fluorescence intensity (a.u.) |
| CTTGCGACCTTAGCGCTTATTGGCGCCAACAAGGTAACTTCGGAGTCACCTAGTGCAG | 3190 fluorescence intensity (a.u.) |
| ATTCATATATATGGTAATGAATCTAGACATACATGTGAGCCGGAGTCACCTAGTGCAG | 23900 fluorescence intensity (a.u.) |
| TTTTAGACCCAAACCCTCAAATTTTCTAAGCAAAATAGTTCGGAGTCACCTAGTGCAG | 26900 fluorescence intensity (a.u.) |
| CAAAATTTGCCTAAACTTATCCCGCGGTCGCTCGTCCCTACGGAGTCACCTAGTGCAG | 18000 fluorescence intensity (a.u.) |
| AATGGAGTTTGTGGAACACATTGGCCATGAGTTTTGCAGCCGGAGTCACCTAGTGCAG | 3210 fluorescence intensity (a.u.) |
| GATGACGATGACCGGAGGGCACCACCATGACGCGCACCACCGGAGTCACCTAGTGCAG | 35700 fluorescence intensity (a.u.) |
| CGCCGGCACAGCGACATAGCTGACGTCGACGATGCTCACTCGGAGTCACCTAGTGCAG | 5350 fluorescence intensity (a.u.) |
| AATTATTGCTGGTGAATAATGATGGGTCATGTTTTCATGTCGGAGTCACCTAGTGCAG | 3400 fluorescence intensity (a.u.) |
| GCAAGAGCCGAGAGGGCCACGTGGCGCGATCCCATTGGTTCGGAGTCACCTAGTGCAG | 12100 fluorescence intensity (a.u.) |
| TGTGGTGTGTGTGTGGCTGAAACCGCGAGGCCGCCGCGAGCGGAGTCACCTAGTGCAG | 3440 fluorescence intensity (a.u.) |
| ATTGAATAAACGTCAGTACGTCACCAAGTACTTTGATTCGCGGAGTCACCTAGTGCAG | 4440 fluorescence intensity (a.u.) |
| TAGGACAAAGCTAGAATGACACGTAGTAATTTGGAACGGACGGAGTCACCTAGTGCAG | 3200 fluorescence intensity (a.u.) |
| AAGGTTTGGAACATTCTGTTACCTATGAATACTGCACAGGCGGAGTCACCTAGTGCAG | 11700 fluorescence intensity (a.u.) |
| CTAGCTCCCGGTGTGTCACCGGTCTATAAGAGGCCCCTGTCGGAGTCACCTAGTGCAG | 4560 fluorescence intensity (a.u.) |
| CCGGCGTGGCCCATCCATCCGTCCGAGTCATCCCGCAAAACGGAGTCACCTAGTGCAG | 6340 fluorescence intensity (a.u.) |

| Sequence | binding signal |
| --- | --- |
| GCCGCCGCCGCCGGAGAAGATGATGGTGCCGCTGGATCCGCGGAGTCACCTAGTGCAG | 43500 fluorescence intensity (a.u.) |
| CGAGCTCTGTTCGTACCGCGCGCTCCGGTGCGGAGTGGTTCGGAGTCACCTAGTGCAG | 3230 fluorescence intensity (a.u.) |
| ACCGGATTAGCCGGTCGGTGACGCTCCATGATTTGGCGCTCGGAGTCACCTAGTGCAG | 4130 fluorescence intensity (a.u.) |
| GAGCTTATATAGCTGAAACAGGGGAAGGAGGATGGGGTTTCGGAGTCACCTAGTGCAG | 3390 fluorescence intensity (a.u.) |
| AAAATTAAAACCGATTCAAACACGGATGACGTACCAAAATCGGAGTCACCTAGTGCAG | 3260 fluorescence intensity (a.u.) |
| GGGCCCAGCAGGTTCCTAGTAGACTTCGTCGTAGTGGGACCGGAGTCACCTAGTGCAG | 8310 fluorescence intensity (a.u.) |
| CTATTGTATGAATTGGCTATAGATGATTTGGAGGCAGTAGCGGAGTCACCTAGTGCAG | 3800 fluorescence intensity (a.u.) |
| TTGCAAACACAGGAATTACCGTTTGATTGAACCACAGGAACGGAGTCACCTAGTGCAG | 12300 fluorescence intensity (a.u.) |
| GTCACGCACTCACACTCAGCCTCCTCACGTCACGTCTGGCCGGAGTCACCTAGTGCAG | 4090 fluorescence intensity (a.u.) |
| CCTTTCTTGGCCGCCACGTGCCACTGTCTCTCCGTCGCCTCGGAGTCACCTAGTGCAG | 10800 fluorescence intensity (a.u.) |
| TAATTAATTGAGTCATGCACATGTCTCTTTAATTTGGCTTCGGAGTCACCTAGTGCAG | 4910 fluorescence intensity (a.u.) |
| GCTCCGGTTTCCCAAGGGAATGGAAGTTCAGATACAAAGCCGGAGTCACCTAGTGCAG | 18700 fluorescence intensity (a.u.) |
| GAGATCGAACATCGATGCAGCCCCGCGTCAGGTGCCAAGTCGGAGTCACCTAGTGCAG | 3510 fluorescence intensity (a.u.) |
| TCAATGGCTAGCGAATGGCATCTTGATCACAACATACACTCGGAGTCACCTAGTGCAG | 3630 fluorescence intensity (a.u.) |
| GATACTACACGTCTCTGCACACGCGTCAGCAAGCTCCTGTCGGAGTCACCTAGTGCAG | 5750 fluorescence intensity (a.u.) |
| GCTGCACGGCCGCGGCGTGGCGCTGACGGCGACGGTGAGGCGGAGTCACCTAGTGCAG | 5740 fluorescence intensity (a.u.) |
| CTAACCCGTCCAGTGAAAGCCCAATCACAGTCATGGGCTGCGGAGTCACCTAGTGCAG | 3230 fluorescence intensity (a.u.) |
| ACGATGAGAGCCTCCCCGAGCGCGCCCACCTCCCACGGCTCGGAGTCACCTAGTGCAG | 3200 fluorescence intensity (a.u.) |
| ACTCACATATATAAATACACACACTGAGCACCCTCGCAGGCGGAGTCACCTAGTGCAG | 3420 fluorescence intensity (a.u.) |
| CTTTACCTTTCCTGCAAGGTAAACCATCTCGCGTCAGCTTCGGAGTCACCTAGTGCAG | 4880 fluorescence intensity (a.u.) |
| AACAATTATATTTTATTCTCTTATGTCACGCCTTAAGCTTCGGAGTCACCTAGTGCAG | 3580 fluorescence intensity (a.u.) |

An excerpt of these results, as comma-separated lines.
Sequence,binding signal
GCCAATCTCGACGTGCGCTACCGCTGCTGCACCTCCGTGCCGGAGTCACCTAGTGCAG,3290 fluorescence intensity (a.u.)
GATGACGATGACCGGAGGGCACCACCATGACGCGCACCACCGGAGTCACCTAGTGCAG,35700 fluorescence intensity (a.u.)
TAGGACAAAGCTAGAATGACACGTAGTAATTTGGAACGGACGGAGTCACCTAGTGCAG,3200 fluorescence intensity (a.u.)
AAGGTTTGGAACATTCTGTTACCTATGAATACTGCACAGGCGGAGTCACCTAGTGCAG,11700 fluorescence intensity (a.u.)
CTAGCTCCCGGTGTGTCACCGGTCTATAAGAGGCCCCTGTCGGAGTCACCTAGTGCAG,4560 fluorescence intensity (a.u.)
CCTTTCTTGGCCGCCACGTGCCACTGTCTCTCCGTCGCCTCGGAGTCACCTAGTGCAG,10800 fluorescence intensity (a.u.)
TAATTAATTGAGTCATGCACATGTCTCTTTAATTTGGCTTCGGAGTCACCTAGTGCAG,4910 fluorescence intensity (a.u.)
GCTGCACGGCCGCGGCGTGGCGCTGACGGCGACGGTGAGGCGGAGTCACCTAGTGCAG,5740 fluorescence intensity (a.u.)

From PMC7819943, “Rice protein-binding microarrays: a tool to detect cis-acting elements near promoter regions in rice”
